Data from PubChem BioAssay AID493014 (National Center for Advancing Translational Sciences (NCATS), 2011).
The other results are listed elsewhere or left out. Further columns of the screen follow, without active or inactive calls. The list favours compounds with an active or inconclusive main result. Potencies come from curve fits of mixed quality, noted in brackets.

Assay: qHTS Assay to Find Inhibitors of Chronic Active B-Cell Receptor Signaling
Details: ABC-DLBCL IkBa-CBG/CBR reporter, luminescence ratio (green luciferase fused to IkBa over red control in TMD8 lymphoma cells), 4 h
In short: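 Concentration-response series (up to 46 uM) were applied to TMD8 dual-reporter cells for 4 h at 37C with doxycycline. Green/red ratio, after filter-overlap correction, defined %Activity; red signal alone was normalised to basal cells and zero luminescence.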

[1] = measured here: CBR red luminescence, cell number

## CC1=NN(C(=O)CSCc2ccccc2)C(O)(c2ccc(F)cc2)C1 (stereo unspecified)
[1]
  AC50: 0.562 µM [falling, full curve]

## Cc1ccc(NC(=O)CN2C(=O)S/C(=C/c3ccc(O)c([N+](=O)[O-])c3)C2=O)cc1C
[1]
  AC50: 1.26 µM [falling, full curve]

## O=C(COc1ccc2c3c(c(=O)oc2c1)CCC3)NCc1ccncc1
[1]
  AC50: 2.82 µM [rising, full curve, poor fit]

## Cc1[nH]c(C)c(C(=O)/C=C/c2ccc([N+](=O)[O-])cc2)c1C
[1]
  AC50: 20 µM [falling, single point]

## CCOc1ccc(/C=C2/SC(=S)N(CCC(=O)Nc3ccc(C(=O)O)cc3)C2=O)cc1
[1]
  AC50: 11.2 µM [falling, partial curve, poor fit]

## COc1cc(/C=C/c2[nH]c(=O)[nH]c(=O)c2[N+](=O)[O-])cc(OC)c1O
[1]
  AC50: 35.5 µM [rising, single point]

## Cn1c(=O)c2c(ncn2CCC(=O)N/N=C/c2ccncc2)n(C)c1=O
[1]
  AC50: 2 µM [rising, full curve, poor fit]

## CN(C1CCCCC1)S(=O)(=O)Cc1ccccc1
[1]
  AC50: 35.5 µM [rising, single point]

## O=C(Nc1ccc(Cl)cc1F)c1ccc(COc2c(F)c(F)c(F)c(F)c2F)o1
[1]
  AC50: 4.47 µM [falling, partial curve, poor fit]

## Cc1[nH]n(C(N)=S)c(=O)c1N=Nc1ccccc1C(F)(F)F
[1]
  AC50: 0.891 µM [rising, full curve, poor fit]

## O=C(O)c1cccnc1SCc1cccc(Br)c1
[1]
  AC50: 8.91 µM [rising, partial curve, poor fit]

## Cc1cc2nc3c(c(C(F)(F)F)n2n1)CCCC3
[1]
  AC50: 17.8 µM [rising, partial curve, poor fit]

## O=C(NCCc1ccc2c(c1)OCCO2)c1ccccc1F
[1]
  AC50: 8.2 µM [falling, partial curve, poor fit]

## C#CCn1c(=NC(=O)c2ccc(S(=O)(=O)N3CCc4ccccc4C3)cc2)sc2cc(S(N)(=O)=O)ccc21
[1]
  AC50: 5.8 µM [rising, single point]
Measured here: IkBa-CBG green luminescence
  AC50: 6.51 µM [falling, single point]

## COc1cccc(C(=O)Nc2c(F)cccc2F)c1
[1]
  AC50: 6.31 µM [falling, full curve, poor fit]

## CC1CCCN(c2ccc(/C=C(\C#N)c3nn(-c4ccccc4)c(N)c3C#N)cc2[N+](=O)[O-])C1 (stereo unspecified)
[1]
  AC50: 3.55 µM [rising, partial curve]

## O=C(NCc1ccco1)c1cc2c(s1)CCCCC2
[1]
  AC50: 13 µM [falling, partial curve, poor fit]

## CCc1ccc(C(=O)Nc2ccc(OC)c(S(=O)(=O)N3CCCCC3)c2)cc1
[1]
  AC50: 23.1 µM [falling, partial curve, poor fit]

## COc1cccc(-n2c(=O)n(Cc3ccccc3)c(=O)c3[nH]cnc32)c1C
[1]
  AC50: 11.2 µM [rising, partial curve]

## Cc1ccc(NC(=O)C2C(=O)N(CCO)C3(C)CC2c2ccccc2O3)cc1 (stereo unspecified)
[1]
  AC50: 29.1 µM [rising, single point]

## CN(C)c1ccc(C(=O)/C=C/c2ccccc2)cc1
[1]
  AC50: 2 µM [falling, full curve]

## O=C(COc1ccc2ccc(=O)oc2c1)c1ccccc1
[1]
  AC50: 12.6 µM [falling, single point]

## COC(=O)C1=C(C)NC(C)=C(C(=O)OC)C1c1ccc(OC(=O)c2ccco2)cc1
[1]
  AC50: 35.5 µM [falling, single point]

## O=C(Nc1ccc(F)cc1)C(=O)c1cn(CC(=O)N2CCOCC2)c2ccccc12
[1]
  AC50: 0.251 µM [falling, full curve]

## CC(=O)N1N=C(c2ccc(C)cc2)OC1c1cccnc1 (stereo unspecified)
[1]
  AC50: 5.62 µM [rising, full curve, poor fit]

## COc1ccc(/C(C)=N/Nc2cccc(C(=O)O)c2)cc1OC
[1]
  AC50: 1.41 µM [falling, full curve]

## CCCC(=O)Nc1nc(C)c(-c2csc(Nc3ccccc3C)n2)s1
[1]
  AC50: 0.708 µM [rising, full curve, poor fit]

## COc1ccc(/C=C/C(=O)Nc2ccccc2C(F)(F)F)cc1OC
[1]
  AC50: 14.1 µM [falling, partial curve, poor fit]

## Clc1ccc(-c2nc3ncccn3c2Nc2ccc3c(c2)OCO3)cc1
[1]
  AC50: 35.5 µM [falling, single point]

## Cc1ccc(C)c(S(=O)(=O)N2CCCC2CNC(=O)C(=O)NCC2CCCO2)c1 (stereo unspecified)
[1]
  AC50: 8.2 µM [rising, partial curve, poor fit]

## CCOC(=O)c1cc2c(C)[nH]c(C)c2cc(C(=O)OCC)c1=O
[1]
  AC50: 3.98 µM [rising, single point]

## CCn1c(=O)n(CC)c2cc(S(=O)(=O)Nc3c(C)cccc3C)ccc21
[1]
  AC50: 3.26 µM [rising, single point]

## COc1cc(C(=O)N/N=C/c2ccc(OC(=O)c3cccc(C)c3)c(OC)c2)ccc1O
[1]
  AC50: 7.94 µM [rising, partial curve, poor fit]

## CC1(C(=O)OCC(=O)Nc2ncc(Cl)cc2Cl)CC1(Cl)Cl (stereo unspecified)
[1]
  AC50: 9.2 µM [rising, partial curve, poor fit]

## COc1ccc(C(=O)Nc2nc3ccccc3[nH]2)cc1OC
[1]
  AC50: 8.2 µM [falling, partial curve]

## COc1ccc(C(CNC(=O)C(C)c2ccc3cc(OC)ccc3c2)N(C)C)cc1 (stereo unspecified)
[1]
  AC50: 35.5 µM [falling, single point]

## COc1ccc(/C=C/C(=O)NCC2COc3ccccc3O2)cc1OC (stereo unspecified)
[1]
  AC50: 7.94 µM [falling, partial curve, poor fit]

## O=C(Nc1ccc2c(c1)OCO2)c1cc2nc(C3CC3)cc(C(F)(F)F)n2n1
[1]
  AC50: 0.112 µM [rising, full curve, poor fit]

## Cc1cc(C=O)c(C)n1-c1ccc(NC2CCCC2)c([N+](=O)[O-])c1
[1]
  AC50: 1.41 µM [rising, full curve, poor fit]

## CC1CCN(c2ccc(-c3cccc(NC(=O)c4ccco4)c3)nn2)CC1
[1]
  AC50: 7.31 µM [falling, partial curve]
